No constants are given. Whether binding was seen depends on the method and setting. Binding seen in cells or lysates may run through a third protein. Some results given as binding are weak or reduced against the parent protein; the word gives no strength.
Target: T1, endogenous FOXM1 (human (endogenous in Colo829)) (UniProt Q08050)
T1 sequence: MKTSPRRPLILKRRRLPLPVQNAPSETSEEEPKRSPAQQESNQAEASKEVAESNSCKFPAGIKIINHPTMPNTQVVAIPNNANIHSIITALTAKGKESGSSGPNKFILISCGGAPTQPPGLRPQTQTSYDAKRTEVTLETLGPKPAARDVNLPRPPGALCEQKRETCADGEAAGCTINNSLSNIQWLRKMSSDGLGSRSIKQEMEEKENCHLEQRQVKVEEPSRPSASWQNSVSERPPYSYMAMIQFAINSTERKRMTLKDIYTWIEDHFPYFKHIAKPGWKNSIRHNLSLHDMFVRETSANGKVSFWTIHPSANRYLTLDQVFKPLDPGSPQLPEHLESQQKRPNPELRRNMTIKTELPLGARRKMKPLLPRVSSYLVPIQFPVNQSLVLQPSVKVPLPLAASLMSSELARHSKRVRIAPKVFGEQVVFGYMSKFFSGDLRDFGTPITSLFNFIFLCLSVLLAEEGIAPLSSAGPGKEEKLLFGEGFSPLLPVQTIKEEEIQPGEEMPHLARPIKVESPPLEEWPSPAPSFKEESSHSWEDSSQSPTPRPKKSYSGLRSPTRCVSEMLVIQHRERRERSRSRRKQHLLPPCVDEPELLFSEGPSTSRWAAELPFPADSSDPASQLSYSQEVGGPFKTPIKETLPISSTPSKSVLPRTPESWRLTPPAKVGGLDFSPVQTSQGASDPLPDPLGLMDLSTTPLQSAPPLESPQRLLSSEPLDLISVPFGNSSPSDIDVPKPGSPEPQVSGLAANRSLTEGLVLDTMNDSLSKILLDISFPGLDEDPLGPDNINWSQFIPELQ
Assay: co-IP; endogenous proteins, Colo829 lysates, IP with an antibody against FOXM1 or control IgG; lysis buffer 20 mM Tris-HCl pH 8.0, 1% NP40, 10% glycerol, 1 mM MgCl2, 1 mM EDTA, 150 mM NaCl

Protein sequences, listed by entry. Tags and fused reporters are not part of them.
UniProt Q13526: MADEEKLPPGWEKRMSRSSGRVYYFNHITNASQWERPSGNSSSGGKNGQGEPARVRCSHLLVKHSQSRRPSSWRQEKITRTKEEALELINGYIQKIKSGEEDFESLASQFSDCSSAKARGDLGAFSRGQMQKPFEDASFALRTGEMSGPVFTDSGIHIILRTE

binding: binds
Substance: endogenous Pin1 (from UniProt Q13526 1-163) (enzyme)
